{"sequences": {"note": "Chains of the proteins cited; added tags and fusions are not shown. Lines headed by an entry give the natural chain unless they say otherwise; changes in a name come on top.", "UniProt Q9Y4F4": "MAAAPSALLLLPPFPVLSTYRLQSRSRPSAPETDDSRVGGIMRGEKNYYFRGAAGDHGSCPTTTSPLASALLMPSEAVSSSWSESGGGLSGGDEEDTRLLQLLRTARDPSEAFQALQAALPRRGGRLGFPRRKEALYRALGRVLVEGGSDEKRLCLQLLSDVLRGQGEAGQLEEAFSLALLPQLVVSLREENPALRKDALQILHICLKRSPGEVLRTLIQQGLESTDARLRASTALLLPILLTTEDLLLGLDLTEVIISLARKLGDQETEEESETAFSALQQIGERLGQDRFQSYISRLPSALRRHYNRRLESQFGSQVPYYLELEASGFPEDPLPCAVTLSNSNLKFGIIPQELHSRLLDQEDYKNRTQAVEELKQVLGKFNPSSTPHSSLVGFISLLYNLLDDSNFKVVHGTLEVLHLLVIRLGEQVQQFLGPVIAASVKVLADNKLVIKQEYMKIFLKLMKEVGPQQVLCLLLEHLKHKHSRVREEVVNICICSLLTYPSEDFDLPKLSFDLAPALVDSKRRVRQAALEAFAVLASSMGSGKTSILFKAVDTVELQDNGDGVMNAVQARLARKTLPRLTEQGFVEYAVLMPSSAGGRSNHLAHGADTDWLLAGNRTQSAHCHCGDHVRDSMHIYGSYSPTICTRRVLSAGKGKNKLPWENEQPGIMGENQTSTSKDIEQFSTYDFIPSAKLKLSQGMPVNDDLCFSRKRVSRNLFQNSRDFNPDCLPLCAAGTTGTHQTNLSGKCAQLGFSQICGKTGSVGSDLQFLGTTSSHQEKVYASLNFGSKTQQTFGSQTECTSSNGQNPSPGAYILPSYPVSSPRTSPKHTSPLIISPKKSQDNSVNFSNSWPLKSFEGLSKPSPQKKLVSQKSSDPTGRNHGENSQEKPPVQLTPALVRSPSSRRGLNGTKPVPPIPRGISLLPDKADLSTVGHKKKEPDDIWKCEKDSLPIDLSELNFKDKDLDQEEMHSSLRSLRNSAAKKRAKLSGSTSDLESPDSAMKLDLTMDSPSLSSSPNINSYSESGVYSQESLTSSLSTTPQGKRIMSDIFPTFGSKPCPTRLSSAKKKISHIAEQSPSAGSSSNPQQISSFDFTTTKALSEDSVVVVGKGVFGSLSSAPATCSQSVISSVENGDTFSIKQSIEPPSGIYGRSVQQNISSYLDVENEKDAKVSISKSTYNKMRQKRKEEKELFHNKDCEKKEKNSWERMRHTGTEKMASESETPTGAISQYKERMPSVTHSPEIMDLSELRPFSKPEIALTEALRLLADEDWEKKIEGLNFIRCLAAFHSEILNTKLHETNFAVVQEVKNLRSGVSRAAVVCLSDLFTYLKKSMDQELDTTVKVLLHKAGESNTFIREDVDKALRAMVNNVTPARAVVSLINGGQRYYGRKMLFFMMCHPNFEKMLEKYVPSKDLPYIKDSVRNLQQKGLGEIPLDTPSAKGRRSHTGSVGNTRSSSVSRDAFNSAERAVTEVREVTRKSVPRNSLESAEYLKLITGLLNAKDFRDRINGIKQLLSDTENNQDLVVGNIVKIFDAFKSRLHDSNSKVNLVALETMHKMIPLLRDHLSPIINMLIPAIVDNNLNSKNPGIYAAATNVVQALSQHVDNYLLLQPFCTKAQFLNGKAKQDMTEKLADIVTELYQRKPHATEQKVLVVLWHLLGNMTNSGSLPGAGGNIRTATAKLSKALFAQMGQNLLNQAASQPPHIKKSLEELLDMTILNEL", "UniProt Q9Y5A9": "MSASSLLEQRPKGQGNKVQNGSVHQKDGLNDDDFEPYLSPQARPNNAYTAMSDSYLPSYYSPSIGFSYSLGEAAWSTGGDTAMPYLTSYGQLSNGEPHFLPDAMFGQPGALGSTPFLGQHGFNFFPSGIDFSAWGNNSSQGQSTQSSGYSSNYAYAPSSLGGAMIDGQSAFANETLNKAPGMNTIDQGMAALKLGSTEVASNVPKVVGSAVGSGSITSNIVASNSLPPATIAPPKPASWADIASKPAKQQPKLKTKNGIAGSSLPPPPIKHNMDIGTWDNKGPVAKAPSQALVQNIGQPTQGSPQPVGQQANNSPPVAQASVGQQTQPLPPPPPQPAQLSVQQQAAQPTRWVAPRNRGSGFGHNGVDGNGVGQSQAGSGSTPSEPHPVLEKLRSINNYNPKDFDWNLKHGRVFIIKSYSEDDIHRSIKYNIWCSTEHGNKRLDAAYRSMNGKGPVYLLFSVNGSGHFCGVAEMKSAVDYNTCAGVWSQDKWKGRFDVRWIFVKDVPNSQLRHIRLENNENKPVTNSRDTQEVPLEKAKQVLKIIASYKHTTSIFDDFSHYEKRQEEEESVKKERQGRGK", "UniProt Q9Y6I7": "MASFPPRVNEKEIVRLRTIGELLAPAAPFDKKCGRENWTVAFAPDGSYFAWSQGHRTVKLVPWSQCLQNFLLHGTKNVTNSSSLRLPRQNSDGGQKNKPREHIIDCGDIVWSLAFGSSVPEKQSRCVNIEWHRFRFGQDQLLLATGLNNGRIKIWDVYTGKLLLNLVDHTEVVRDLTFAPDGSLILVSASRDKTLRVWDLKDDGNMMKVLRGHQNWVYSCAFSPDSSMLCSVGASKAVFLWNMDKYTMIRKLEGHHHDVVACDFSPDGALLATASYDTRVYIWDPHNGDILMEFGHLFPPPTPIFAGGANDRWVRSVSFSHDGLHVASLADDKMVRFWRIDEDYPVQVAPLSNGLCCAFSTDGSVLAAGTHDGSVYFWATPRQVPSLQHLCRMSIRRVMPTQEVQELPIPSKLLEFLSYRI", "UniProt Q9Y4E5": "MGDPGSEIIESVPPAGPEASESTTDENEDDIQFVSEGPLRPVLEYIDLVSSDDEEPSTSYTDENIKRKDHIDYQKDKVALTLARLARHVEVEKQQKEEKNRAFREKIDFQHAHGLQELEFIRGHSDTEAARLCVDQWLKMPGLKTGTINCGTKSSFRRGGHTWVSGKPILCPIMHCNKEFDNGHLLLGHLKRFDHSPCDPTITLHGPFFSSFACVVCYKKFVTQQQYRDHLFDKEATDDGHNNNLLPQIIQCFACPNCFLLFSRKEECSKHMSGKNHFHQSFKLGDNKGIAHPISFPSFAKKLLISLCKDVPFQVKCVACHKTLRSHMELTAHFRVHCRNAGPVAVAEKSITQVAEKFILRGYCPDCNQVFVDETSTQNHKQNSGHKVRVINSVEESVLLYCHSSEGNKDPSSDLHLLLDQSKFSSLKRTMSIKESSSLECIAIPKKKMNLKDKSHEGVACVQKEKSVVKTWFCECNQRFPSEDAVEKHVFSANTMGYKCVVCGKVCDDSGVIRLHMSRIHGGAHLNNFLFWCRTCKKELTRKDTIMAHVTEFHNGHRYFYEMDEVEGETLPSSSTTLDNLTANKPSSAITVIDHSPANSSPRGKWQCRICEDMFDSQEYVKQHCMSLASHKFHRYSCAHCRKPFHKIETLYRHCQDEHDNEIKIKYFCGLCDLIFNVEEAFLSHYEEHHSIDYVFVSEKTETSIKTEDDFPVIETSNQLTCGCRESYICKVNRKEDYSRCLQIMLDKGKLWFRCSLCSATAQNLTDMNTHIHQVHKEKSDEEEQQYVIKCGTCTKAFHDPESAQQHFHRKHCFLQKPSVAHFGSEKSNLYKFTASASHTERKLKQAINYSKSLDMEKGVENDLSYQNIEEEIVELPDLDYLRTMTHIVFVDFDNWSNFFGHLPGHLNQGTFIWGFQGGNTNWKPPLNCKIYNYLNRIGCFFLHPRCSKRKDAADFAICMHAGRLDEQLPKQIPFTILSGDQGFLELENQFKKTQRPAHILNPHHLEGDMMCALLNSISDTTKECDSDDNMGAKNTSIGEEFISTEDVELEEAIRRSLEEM", "UniProt Q9Y6D5": "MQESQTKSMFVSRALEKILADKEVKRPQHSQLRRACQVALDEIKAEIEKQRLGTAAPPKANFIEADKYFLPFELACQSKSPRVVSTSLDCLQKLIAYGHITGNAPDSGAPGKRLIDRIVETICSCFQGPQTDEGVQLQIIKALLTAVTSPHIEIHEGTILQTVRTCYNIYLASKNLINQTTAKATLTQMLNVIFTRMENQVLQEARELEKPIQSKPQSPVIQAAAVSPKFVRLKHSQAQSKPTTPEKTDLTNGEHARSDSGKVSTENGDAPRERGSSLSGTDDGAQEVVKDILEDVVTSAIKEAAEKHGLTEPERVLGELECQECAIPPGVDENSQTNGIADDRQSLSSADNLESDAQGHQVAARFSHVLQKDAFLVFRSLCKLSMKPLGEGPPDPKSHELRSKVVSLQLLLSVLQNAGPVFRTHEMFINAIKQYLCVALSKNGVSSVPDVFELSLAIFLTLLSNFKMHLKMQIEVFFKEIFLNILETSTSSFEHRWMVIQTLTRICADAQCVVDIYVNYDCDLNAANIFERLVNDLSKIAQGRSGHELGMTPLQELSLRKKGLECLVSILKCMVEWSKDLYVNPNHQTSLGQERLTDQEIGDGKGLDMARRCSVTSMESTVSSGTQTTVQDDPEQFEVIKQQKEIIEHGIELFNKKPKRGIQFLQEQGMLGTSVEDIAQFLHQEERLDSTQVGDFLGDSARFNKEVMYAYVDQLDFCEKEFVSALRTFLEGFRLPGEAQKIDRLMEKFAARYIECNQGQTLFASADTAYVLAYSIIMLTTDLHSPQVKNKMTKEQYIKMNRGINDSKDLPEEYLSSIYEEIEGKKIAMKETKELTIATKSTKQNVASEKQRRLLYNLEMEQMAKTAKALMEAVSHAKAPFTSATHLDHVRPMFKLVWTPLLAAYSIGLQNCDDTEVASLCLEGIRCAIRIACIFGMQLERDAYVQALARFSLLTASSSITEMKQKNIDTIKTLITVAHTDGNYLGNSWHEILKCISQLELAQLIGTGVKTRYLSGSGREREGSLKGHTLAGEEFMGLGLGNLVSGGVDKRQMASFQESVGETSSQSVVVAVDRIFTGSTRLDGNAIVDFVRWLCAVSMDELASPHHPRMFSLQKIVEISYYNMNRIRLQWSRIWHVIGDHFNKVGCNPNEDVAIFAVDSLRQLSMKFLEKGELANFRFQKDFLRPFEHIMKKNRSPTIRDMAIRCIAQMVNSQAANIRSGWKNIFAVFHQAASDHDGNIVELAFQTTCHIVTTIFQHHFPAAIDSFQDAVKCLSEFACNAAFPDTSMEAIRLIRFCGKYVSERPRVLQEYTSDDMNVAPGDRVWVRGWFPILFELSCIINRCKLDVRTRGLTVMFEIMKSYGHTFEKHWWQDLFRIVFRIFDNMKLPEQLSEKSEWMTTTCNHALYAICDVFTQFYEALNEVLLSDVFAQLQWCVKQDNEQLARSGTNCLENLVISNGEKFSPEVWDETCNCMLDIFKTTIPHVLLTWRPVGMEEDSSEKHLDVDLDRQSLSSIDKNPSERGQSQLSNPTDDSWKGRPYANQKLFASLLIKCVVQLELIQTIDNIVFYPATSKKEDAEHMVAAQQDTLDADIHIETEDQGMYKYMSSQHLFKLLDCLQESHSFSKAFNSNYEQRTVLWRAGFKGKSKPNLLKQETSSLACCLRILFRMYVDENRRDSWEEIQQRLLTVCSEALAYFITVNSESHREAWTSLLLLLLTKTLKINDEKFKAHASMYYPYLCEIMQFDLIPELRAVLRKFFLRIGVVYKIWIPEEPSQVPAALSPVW", "UniProt Q9Y467": "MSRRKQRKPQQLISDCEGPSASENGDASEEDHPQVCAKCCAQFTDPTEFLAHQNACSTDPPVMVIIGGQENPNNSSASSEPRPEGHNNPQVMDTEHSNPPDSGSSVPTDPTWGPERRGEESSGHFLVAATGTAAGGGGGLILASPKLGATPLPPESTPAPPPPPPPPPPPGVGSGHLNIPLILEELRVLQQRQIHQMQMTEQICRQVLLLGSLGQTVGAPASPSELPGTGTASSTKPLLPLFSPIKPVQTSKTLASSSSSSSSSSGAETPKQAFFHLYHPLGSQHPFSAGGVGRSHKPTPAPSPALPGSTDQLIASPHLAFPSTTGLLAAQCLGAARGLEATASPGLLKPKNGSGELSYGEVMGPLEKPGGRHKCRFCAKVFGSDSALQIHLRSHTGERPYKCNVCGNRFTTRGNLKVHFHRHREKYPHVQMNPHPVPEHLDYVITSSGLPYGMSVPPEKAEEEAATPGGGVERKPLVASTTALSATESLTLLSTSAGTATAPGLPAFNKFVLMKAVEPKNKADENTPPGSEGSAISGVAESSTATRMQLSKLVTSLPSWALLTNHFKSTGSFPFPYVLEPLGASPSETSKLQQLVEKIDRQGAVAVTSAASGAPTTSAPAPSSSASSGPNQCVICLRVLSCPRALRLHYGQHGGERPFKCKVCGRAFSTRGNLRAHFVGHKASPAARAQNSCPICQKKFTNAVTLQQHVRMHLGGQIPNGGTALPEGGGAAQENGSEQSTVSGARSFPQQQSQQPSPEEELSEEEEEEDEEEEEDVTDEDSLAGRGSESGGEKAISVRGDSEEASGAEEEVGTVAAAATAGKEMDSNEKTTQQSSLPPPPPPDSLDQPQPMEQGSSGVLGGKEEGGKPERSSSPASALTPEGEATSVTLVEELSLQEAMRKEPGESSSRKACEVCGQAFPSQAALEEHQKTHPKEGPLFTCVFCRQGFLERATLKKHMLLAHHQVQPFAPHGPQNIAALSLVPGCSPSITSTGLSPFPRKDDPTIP"}, "source": "the supplement of paper PMC12819154", "about": "“High-throughput peptide-centric local stability assay extends protein–ligand identification to membrane proteins, tissues and bacteria” (Nature Structural & Molecular Biology, 2025)", "note": "Some of the results follow. Most entries show no effect beyond the scatter of the controls."}
{"compound": "CN[C@@H]1C[C@H]2O[C@@](C)([C@@H]1OC)n1c3ccccc3c3c4c(c5c6ccccc6n2c5c31)C(=O)NC4 [staurosporine]", "assay": "log2 fold change of tryptic peptide abundance, ligand vs vehicle (limited proteolysis) (log2 ratio); higher = more trypsin-susceptible (destabilized)", "conditions": "ligand concentration: 20 uM; sample: K562 cleared lysate; digestion: 4 min, 22 C (HT-PELSA RT4min, Orbitrap Astral)"}
{"target": "AP4B1 (peptide sequence: TSSFAASGPLIPEENKER, peptide start residue: 591) (UniProt Q9Y6B7)", "log2 fold change": -0.0823}
{"target": "NME7 (peptide sequence: RYELLFYPGDGSVEMHDVK, peptide start residue: 23) (UniProt Q9Y5B8)", "log2 fold change": -0.126}
{"target": "RAPGEF2 (peptide sequence: ILSLSEEGSLER, peptide start residue: 1087) (UniProt Q9Y4G8)", "log2 fold change": -0.207}
{"target": "LAS1L (peptide sequence: CLAQEVNIPDWIVDLR, peptide start residue: 140) (UniProt Q9Y4W2)", "log2 fold change": -0.31}
{"target": "MYH4 (peptide sequence: QLEEETK, peptide start residue: 1322) (UniProt Q9Y623)", "log2 fold change": -0.181}
{"target": "TRAPPC1 (peptide sequence: SLPFFSAR, peptide start residue: 136) (UniProt Q9Y5R8)", "log2 fold change": 0.402}
{"target": "TACC3 (peptide sequence: KQSLYLKFDPLLR, peptide start residue: 556) (UniProt Q9Y6A5)", "log2 fold change": -0.63}
{"target": "SNX5 (peptide sequence: LGEGEGSMTKEEFAK, peptide start residue: 109) (UniProt Q9Y5X3)", "log2 fold change": -0.137}
{"target": "UniProt Q9Y4F4 (peptide sequence: KPHATEQK, peptide start residue: 1642)", "log2 fold change": 0.157}
{"target": "HBS1L (peptide sequence: QLLNLVVIGHVDAGK, peptide start residue: 259) (UniProt Q9Y450)", "log2 fold change": -0.519}
{"target": "YTHDF2 (peptide sequence: DGLNDDDFEPYLSPQAR, peptide start residue: 27) (UniProt Q9Y5A9)", "log2 fold change": -0.329}
{"target": "ARFGEF1 (peptide sequence: MYMDESR, peptide start residue: 1737) (UniProt Q9Y6D6)", "log2 fold change": 0.309}
{"target": "RAD54L2 (peptide sequence: GKGEDSTLASSMGEATNSK, peptide start residue: 664) (UniProt Q9Y4B4)", "log2 fold change": 0.489}
{"target": "WSB1 (peptide sequence: TIGELLAPAAPFDKK, peptide start residue: 18) (UniProt Q9Y6I7)", "log2 fold change": -0.141}
{"target": "TELO2 (peptide sequence: FNSVAGHFFFPLLQR, peptide start residue: 692) (UniProt Q9Y4R8)", "log2 fold change": -0.127}
{"target": "KCTD3 (peptide sequence: NGLNSTEGEAR, peptide start residue: 150) (UniProt Q9Y597)", "log2 fold change": -0.127}
{"target": "ZNF451 (peptide sequence: GHSDTEAARLCVDQWLK, peptide start residue: 123) (UniProt Q9Y4E5)", "log2 fold change": -0.565}
{"target": "UniProt Q9Y5B6 (peptide sequence: ELGDFTPHDNEPGKGR, peptide start residue: 237)", "log2 fold change": -0.229}
{"target": "ORC6 (peptide sequence: IGQQVDREPGDVATPPR, peptide start residue: 182) (UniProt Q9Y5N6)", "log2 fold change": 0.223}
{"target": "CABIN1 (peptide sequence: LPILSSQAGATGK, peptide start residue: 1412) (UniProt Q9Y6J0)", "log2 fold change": 0.417}
{"target": "ARFGEF2 (peptide sequence: ALMEAVSHAK, peptide start residue: 869) (UniProt Q9Y6D5)", "log2 fold change": 0.226}
{"target": "MAD1L1 (peptide sequence: QELQEQLDLQHKK, peptide start residue: 188) (UniProt Q9Y6D9)", "log2 fold change": -0.594}
{"target": "SRPRB (peptide sequence: SAAPSTLDSSSTAPAQLGKK, peptide start residue: 209) (UniProt Q9Y5M8)", "log2 fold change": -0.134}
{"target": "SNX14 (peptide sequence: LFNDLFK, peptide start residue: 757) (UniProt Q9Y5W7)", "log2 fold change": 0.322}
{"target": "UniProt Q9Y4C1 (peptide sequence: LFSKPASK, peptide start residue: 760)", "log2 fold change": 0.523}
{"target": "MRPS18C (peptide sequence: HITGLCGK, peptide start residue: 95) (UniProt Q9Y3D5)", "log2 fold change": 0.215}
{"target": "SALL2 (peptide sequence: QAFFHLYHPLGSQHPFSAGGVGR, peptide start residue: 272) (UniProt Q9Y467)", "log2 fold change": -0.234}
{"target": "ZSCAN21 (peptide sequence: QCVNLENEK, peptide start residue: 240) (UniProt Q9Y5A6)", "log2 fold change": 0.364}
{"target": "PSAT1 (peptide sequence: ALELNMLSLK, peptide start residue: 324) (UniProt Q9Y617)", "log2 fold change": -0.396}
{"target": "GMPPB (peptide sequence: FVEKPQVFVSNK, peptide start residue: 159) (UniProt Q9Y5P6)", "log2 fold change": 0.53}
{"target": "ALG5 (peptide sequence: HEEEKFFLNAK, peptide start residue: 40) (UniProt Q9Y673)", "log2 fold change": -0.703}
{"target": "UCHL5 (peptide sequence: GAQVEEIWSLEPENFEK, peptide start residue: 29) (UniProt Q9Y5K5)", "log2 fold change": -0.808}
{"target": "EPN1 (peptide sequence: QLVALLRDEDR, peptide start residue: 129) (UniProt Q9Y6I3)", "log2 fold change": 0.236}
{"target": "KPTN (peptide sequence: GELLAATLK, peptide start residue: 39) (UniProt Q9Y664)", "log2 fold change": 0.028}
{"target": "USP16 (peptide sequence: QMLISLAPPVLTLHLKR, peptide start residue: 683) (UniProt Q9Y5T5)", "log2 fold change": -0.249}
{"target": "UniProt Q9Y448 (peptide sequence: LTETQGELKDLTQK, peptide start residue: 193)", "log2 fold change": -0.301}
{"target": "NCOR2 (peptide sequence: YPPHSLSYPVQIAR, peptide start residue: 19) (UniProt Q9Y618)", "log2 fold change": 0.371}
{"target": "IPP (peptide sequence: YIEGVSDFNLR, peptide start residue: 239) (UniProt Q9Y573)", "log2 fold change": 0.116}
{"target": "WDR45 (peptide sequence: IYNVEPLMEK, peptide start residue: 31) (UniProt Q9Y484)", "log2 fold change": 0.0625}
